In PMC13337110, “Pericentrosomal Redistribution of the Endoplasmic Reticulum Ensures Organelle Symmetric Inheritance and Mitotic Progression” (Advanced Science, 2026) one finds binding data, which are given here for three substances.

Sequences of proteins named here, by UniProt entry; tags and fusion partners are left off. A change or cut given only in a name is not applied to a line headed by its entry. A line that says so, or that is headed by a name, gives the form on record, which may keep a tag or linker.
2×Strep-HA-RTN4B 6D (Q9NQC3-2, form named): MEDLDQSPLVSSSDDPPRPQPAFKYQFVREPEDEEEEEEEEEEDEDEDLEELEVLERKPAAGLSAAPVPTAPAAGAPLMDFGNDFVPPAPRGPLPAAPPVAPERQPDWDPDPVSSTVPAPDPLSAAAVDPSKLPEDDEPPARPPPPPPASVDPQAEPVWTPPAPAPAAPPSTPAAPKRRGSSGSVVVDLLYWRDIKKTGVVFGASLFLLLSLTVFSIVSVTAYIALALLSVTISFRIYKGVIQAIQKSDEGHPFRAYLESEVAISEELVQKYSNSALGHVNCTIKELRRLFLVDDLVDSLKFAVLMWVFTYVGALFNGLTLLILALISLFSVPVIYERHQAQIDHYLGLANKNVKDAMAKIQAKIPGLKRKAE
RTN4 (construct not stated; Figures S4H, S5B, S5D, S5E, S5F) (Q9NQC3-2, form named): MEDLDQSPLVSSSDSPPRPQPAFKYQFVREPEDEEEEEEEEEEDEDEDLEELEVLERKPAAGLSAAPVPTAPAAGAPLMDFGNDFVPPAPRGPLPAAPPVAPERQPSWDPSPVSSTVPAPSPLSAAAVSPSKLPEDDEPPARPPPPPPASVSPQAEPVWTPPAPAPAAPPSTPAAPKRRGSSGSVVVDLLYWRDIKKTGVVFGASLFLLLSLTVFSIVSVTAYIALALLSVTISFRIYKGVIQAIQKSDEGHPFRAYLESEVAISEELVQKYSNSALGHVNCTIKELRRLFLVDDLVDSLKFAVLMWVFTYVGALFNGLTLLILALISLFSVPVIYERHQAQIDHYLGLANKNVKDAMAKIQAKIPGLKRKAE

These are yes or no findings as the source states them, for the method shown. Binding seen in cells or lysates may run through a third protein. Some binding calls cover weakened binding; strength is not graded here.

For assay [1], the target named is mEmerald-Rab11A (HeLa, stable) (human) (UniProt P62491). Briefly: co-IP; lysates of HeLa cells stably expressing mEmerald-Rab11A (asynchronous or STLC-arrested mitotic; or co-expressing 2×Strep-HA-RTN4B variants); anti-GFP nanobody agarose beads, 2 h at 4°C; 50 mM Tris-HCl, 150 mM NaCl, 1% Triton X-100, 1 mM EDTA, pH 7.4; Western blot. For orientation: In western blotting, separated proteins are transferred to a membrane and probed.

The target of assay [2] is mEmerald-Rab11A (HEK293T, overexpressed) (human) (UniProt P62491). The assay is described as follows: co-IP; lysates of HEK293T cells overexpressing mEmerald-Rab11A and 3×Flag-RTN4B constructs; anti-GFP nanobody agarose beads, 2 h at 4°C; Western blot.
The target in another assay is T1, Rab11B (human) (UniProt Q15907).
T1 sequence: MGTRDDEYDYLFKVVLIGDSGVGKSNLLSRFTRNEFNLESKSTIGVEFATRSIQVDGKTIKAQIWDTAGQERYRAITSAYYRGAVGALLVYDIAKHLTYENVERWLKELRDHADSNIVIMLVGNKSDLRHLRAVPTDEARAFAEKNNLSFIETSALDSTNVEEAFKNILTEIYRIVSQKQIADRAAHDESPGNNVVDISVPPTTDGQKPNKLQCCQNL
Briefly: co-IP; co-immunoprecipitation; baits, tags and cells only in Figures S5B and S5E.

Assay [3] addresses Rab11A (construct not stated; Figures S5B, S5D) (human) (UniProt P62491). The description is as above.
The target of a further assay is T2, FIP3 (human) (UniProt O75154).
T2 sequence: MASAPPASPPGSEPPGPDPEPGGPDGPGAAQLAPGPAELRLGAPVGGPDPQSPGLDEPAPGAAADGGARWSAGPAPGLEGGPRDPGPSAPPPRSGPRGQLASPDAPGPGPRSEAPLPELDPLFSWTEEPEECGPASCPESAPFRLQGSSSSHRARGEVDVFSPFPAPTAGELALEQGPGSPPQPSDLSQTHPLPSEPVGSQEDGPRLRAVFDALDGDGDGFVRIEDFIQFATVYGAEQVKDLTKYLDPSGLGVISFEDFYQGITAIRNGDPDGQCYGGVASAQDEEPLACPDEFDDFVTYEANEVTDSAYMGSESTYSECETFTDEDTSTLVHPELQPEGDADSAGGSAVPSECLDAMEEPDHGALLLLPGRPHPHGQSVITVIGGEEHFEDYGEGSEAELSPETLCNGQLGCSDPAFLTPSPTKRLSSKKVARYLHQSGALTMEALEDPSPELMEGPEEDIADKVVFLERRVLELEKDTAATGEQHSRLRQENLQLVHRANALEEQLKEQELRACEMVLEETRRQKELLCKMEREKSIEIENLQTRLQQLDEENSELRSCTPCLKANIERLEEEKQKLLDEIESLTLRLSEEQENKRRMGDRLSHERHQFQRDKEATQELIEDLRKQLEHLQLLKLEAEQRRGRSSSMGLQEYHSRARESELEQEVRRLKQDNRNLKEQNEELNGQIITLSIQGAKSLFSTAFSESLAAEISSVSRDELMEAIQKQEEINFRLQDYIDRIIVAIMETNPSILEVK
The description is as above.

With “2×Strep-HA-RTN4B 6D (from UniProt Q9NQC3-2 1-373)”, the binding result in assay [1] is “binds”. For “3×Flag-RTN4B full-length (FL) (from UniProt Q9NQC3-2 1-373)”, in assay [2], the binding entry is reported as “binds”.

“RTN4 (construct not stated; Figures S4H, S5B, S5D, S5E, S5F) (from UniProt Q9NQC3-2 1-373)”: the binding entry (in the assay with Rab11B (human); in assay [3]; with FIP3 (human)) was “binds” in each case.
